Data from the primary screen of doi:10.1371/journal.pone.0140310, rounded.

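Human melanoma cell lines in 1,536-well plates were treated with two drugs together for 72 h, then fixed, stained and imaged. The read-out is cell count (nuclei) in % of the DMSO control; lower values mean stronger growth inhibition or killing. Concentrations were fixed for each drug; these are the lower of two levels, a fifth of the higher. No replicate spread is given; individual values may be noisy.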 An unselected part of the screen is shown.

All values are for the listed drug together with AS-252424 (1 µM): O=C1NC(=O)/C(=C/c2ccc(-c3ccc(F)cc3O)o2)S1

Compounds and concentrations:
BMS-536924: Cc1cc(N2CCOCC2)cc2[nH]c(-c3c(NC[C@@H](O)c4cccc(Cl)c4)cc[nH]c3=O)nc12 at 0.2 µM
OSI-906: C[C@]1(O)C[C@@H](c2nc(-c3ccc4ccc(-c5ccccc5)nc4c3)c3c(N)nccn32)C1 at 0.4 µM
SNS-032: CC(C)(C)c1cnc(CSc2cnc(NC(=O)C3CCNCC3)s2)o1 at 0.01 µM
ENMD-2076: Cc1cc(Nc2cc(N3CCN(C)CC3)nc(/C=C/c3ccccc3)n2)n[nH]1 at 0.04 µM
STA-4783: CN(NC(=O)CC(=O)NN(C)C(=S)c1ccccc1)C(=S)c1ccccc1 at 0.006 µM
cediranib: COc1cc2c(Oc3ccc4[nH]c(C)cc4c3F)ncnc2cc1OCCCN1CCCC1 at 0.4 µM
veliparib: C[C@]1(c2nc3c(C(N)=O)cccc3[nH]2)CCCN1 at 1.4 µM
lenalidomide: Nc1cccc2c1CN(C1CCC(=O)NC1=O)C2=O (centres unmarked) at 1 µM
GW0742: Cc1cc(SCc2sc(-c3ccc(C(F)(F)F)c(F)c3)nc2C)ccc1OCC(=O)O at 2 µM
ZM336372: Cc1ccc(NC(=O)c2cccc(N(C)C)c2)cc1NC(=O)c1ccc(O)cc1 at 2 µM
palbociclib: CC(=O)c1c(C)c2cnc(Nc3ccc(N4CCNCC4)cn3)nc2n(C2CCCC2)c1=O at 0.04 µM
JZL184: O=C(Oc1ccc([N+](=O)[O-])cc1)N1CCC(C(O)(c2ccc3c(c2)OCO3)c2ccc3c(c2)OCO3)CC1 at 1 µM
fludarabine: Nc1nc(F)nc2c1ncn2[C@@H]1O[C@H](CO)[C@@H](O)[C@@H]1O at 0.2 µM
PF-04217903: OCCn1cc(-c2cnc3nnn(Cc4ccc5ncccc5c4)c3n2)cn1 at 1 µM
pioglitazone: CCc1ccc(CCOc2ccc(CC3SC(=O)NC3=O)cc2)nc1 (centres unmarked) at 2 µM
dasatinib: Cc1nc(Nc2ncc(C(=O)Nc3c(C)cccc3Cl)s2)cc(N2CCN(CCO)CC2)n1 at 0.004 µM
midostaurin: CO[C@@H]1[C@H](N(C)C(=O)c2ccccc2)C[C@H]2O[C@]1(C)n1c3ccccc3c3c4c(c5c6ccccc6n2c5c31)C(=O)NC4 at 0.08 µM
etoposide: COc1cc([C@@H]2c3cc4c(cc3[C@@H](O[C@@H]3O[C@@H]5CO[C@@H](C)O[C@H]5[C@H](O)[C@H]3O)[C@H]3COC(=O)[C@H]23)OCO4)cc(OC)c1O at 0.02 µM
YM155: COCC[n+]1c2c(n(Cc3cnccn3)c1C)C(=O)c1ccccc1C2=O at 0.0004 µM
CP-690550: C[C@@H]1CCN(C(=O)CC#N)C[C@@H]1N(C)c1ncnc2[nH]ccc12 at 1 µM
tipifarnib: Cn1cncc1[C@@](N)(c1ccc(Cl)cc1)c1ccc2c(c1)c(-c1cccc(Cl)c1)cc(=O)n2C at 0.01 µM
temozolomide: Cn1nnc2c(C(N)=O)ncn2c1=O at 2 µM
NVP-BEZ235: Cn1c(=O)n(-c2ccc(C(C)(C)C#N)cc2)c2c3cc(-c4cnc5ccccc5c4)ccc3ncc21 at 0.004 µM
AZD7762: NC(=O)Nc1cc(-c2cccc(F)c2)sc1C(=O)N[C@H]1CCCNC1 at 0.02 µM
SNS-314: O=C(Nc1cccc(Cl)c1)Nc1ncc(CCNc2ncnc3ccsc23)s1 at 0.0008 µM
decitabine: Nc1ncn([C@H]2C[C@H](O)[C@@H](CO)O2)c(=O)n1 at 0.1 µM
erlotinib: C#Cc1cccc(Nc2ncnc3cc(OCCOC)c(OCCOC)cc23)c1 at 0.8 µM
tamatinib: COc1cc(Nc2ncc(F)c(Nc3ccc4c(n3)NC(=O)C(C)(C)O4)n2)cc(OC)c1OC at 0.4 µM
sunitinib: CCN(CC)CCNC(=O)c1c(C)[nH]c(/C=C2\C(=O)Nc3ccc(F)cc32)c1C at 0.4 µM
bortezomib: CC(C)C[C@H](NC(=O)[C@H](Cc1ccccc1)NC(=O)c1cnccn1)B(O)O at 0.001 µM
GW9662: O=C(Nc1ccccc1)c1cc([N+](=O)[O-])ccc1Cl at 2 µM

| # | Second drug | COLO 829 |
|---|---|---|
| 1 | sunitinib | 96.6 |
| 2 | cediranib | 113 |
| 3 | CP-690550 | 113 |
| 4 | dasatinib | 106 |
| 5 | YM155 | 95.8 |
| 6 | OSI-906 | 112 |
| 7 | tipifarnib | 81.6 |
| 8 | GW9662 | 78.0 |
| 9 | ENMD-2076 | 106 |
| 10 | decitabine | 81.0 |
| 11 | tamatinib | 86.7 |
| 12 | lenalidomide | 88.7 |
| 13 | veliparib | 93.8 |
| 14 | SNS-032 | 85.2 |
| 15 | ZM336372 | 105 |
| 16 | JZL184 | 106 |
| 17 | bortezomib | 58.0 |
| 18 | STA-4783 | 87.0 |
| 19 | etoposide | 95.8 |
| 20 | pioglitazone | 120 |
| 21 | palbociclib | 90.6 |
| 22 | BMS-536924 | 129 |
| 23 | PF-04217903 | 94.2 |
| 24 | SNS-314 | 132 |
| 25 | fludarabine | 111 |
| 26 | erlotinib | 114 |
| 27 | temozolomide | 77.6 |
| 28 | GW0742 | 94.8 |
| 29 | NVP-BEZ235 | 114 |
| 30 | midostaurin | 85.6 |
| 31 | AZD7762 | 93.3 |

For reference, 4 entries once more:

Second drug	COLO 829
erlotinib	114
temozolomide	77.6
dasatinib	106
YM155	95.8